The target in this assay is BD-Mer1_(23-341) (U. maydis). The assay is described as follows: two-hybrid; directed spotting assay: bait in pGBKT7 (strain AH109), prey in pADGG (strain Y187); growth of diploids on intermediate (-L, -W, -H) or high stringency (-L, -W, -H, -A) media 4 days post-inoculation.

These are yes or no findings as the source states them, for the method shown. Binding can be weak; no strength is given.

As for AtRFI2B (from UniProt F4J8E5) (enzyme), the binding entry is “binds”.

B1: AtRFI2A (enzyme, UniProt O82239 1-358)
chain: MAGAKDSGCDDDLRIAGGCDPGKRGNPEDSSSPVEVSCSICLESVLDDGTRSKAKLQCGHQFHLDCIGSAFNMKGAMQCPNCRNVEKGQWLYANGSTRPFPEFSMEDWIPEEDLYGLSYPEMQYRVHWCPFGELSQAAASFEELEPATTTYHTEFHGHHAAAVNHSYLAYVGPGPAATPRTSDNNSTDDHPWNSHSNDHFHQLPVAPQYHHHSPSFSLPAAHVVDGEVDSSAARGLPYAHPFLFSHRSNQRSSPAINSYQGSSTQMREQHHAYNHQRQQHHANGPTLASPLISMTRRGLPPPPPPPPMPDQNVGFFIYPGGHHEPETDQIHAWERDWFPHFPVPSNHRTIPSLWHRHF
On to B1, for which the binding result was “binds”.

The values above are taken from paper PMC8224859.
